Measurements taken from PubChem BioAssay AID588499 (NMMLSC, 2011).
The whole screen tested about 360,000 compounds, of which about 610 (0.17%) were called active. Inconclusive means that the source gave no clear call. Such entries were picked first, then a sample of the others. No stated cut-off is given here; in the data, active means inhibition above about 30%; inconclusive means no clear call, values can overlap the other calls; inactive means below that.

What follows are compounds tested on Botulinum neurotoxin type A light chain protease (Clostridium botulinum A str. ATCC 3502) (assay: blockers of BoNT/A LC substrate cleavage – biochemical, flow cytometry, MLPCN library, primary screen (AID 588499; further: plate controls were buffer without enzyme for full effect and enzyme alone for no effect)). Conditions: multiplex microsphere protease substrate cleavage, at 10 µM, stronger effect = higher value.

| Compound | inhibition |
| --- | --- |
| CCN1CCN(Cc2c(O)ccc3c2O/C(=C\C=C\c2ccccc2)C3=O)CC1 | active: 35.3% |
| CCCCN(CCCC)Cc1cc(=O)oc2cc(OC)c(Cl)cc12 | inactive: -0.4% |
| Cc1ccc2nc(SCC(=O)c3c[nH]c4ccccc34)[nH]c2c1 | active: 58.1% |
| C=CCNC(=S)NNC(=O)COc1cccc(Cl)c1 | inconclusive: 3.6% |
| Cc1cccc(CN(C)C)c1OC(=O)N(C)C | inconclusive: 4% |
| CCCCCCC(=O)Oc1ccc(N2C(=O)CCC2=O)cc1 | inactive: 0.1% |
| COc1ccc(CCN(C)C2CCCN(S(=O)(=O)C(C)C)C2)cc1OC (configuration not stated) | inconclusive: -0.6% |
| O=C(CCNC(=O)N1CCn2c1nc1ccccc12)NCc1ccccc1 | inactive: 0.8% |
| O=c1[nH]cccc1-c1nc2ccccc2n1Cc1cccc(Cl)c1 | inactive: -0.7% |
| Cc1cc(Cl)c(S(=O)(=O)NC(C(=O)O)C(C)C)cc1OCC(=O)NC1CCCCC1 (configuration not stated) | inconclusive: 0.5% |
| CC(C)Sc1sc(C(=O)O)c(-c2ccc(Cl)cc2)c1C#N | inconclusive: -1% |
| O=C(c1ccco1)N(c1ccccn1)c1ccccn1 | inconclusive: -1.6% |
| COC(=O)c1cc(C(=O)OC)n(Cc2ccc(Cl)cc2Cl)n1 | inconclusive: 6.1% |
| CCn1c(SCC(=O)NCc2ccco2)nnc1-c1cccs1 | inconclusive: 6% |
| O=C(Cc1ccccc1)Nc1cc([N+](=O)[O-])ccc1N1CCOCC1 | inactive: -1.2% |
| Cc1onc(-c2c(Cl)cccc2Cl)c1C(=O)Nc1ccc(Cl)cn1 | inconclusive: 4.3% |
| CCCOn1c(-n2nc(C)cc2C)nc2ccccc2c1=O | inconclusive: -3.3% |
| COc1cccc(NC(=O)CN(C)C(=O)c2cc3c(s2)CCCCC3)c1 | inactive: 6.1% |
| CC(=O)Nc1cccc(OCC(O)Cn2cnc3ccccc32)c1 (configuration not stated) | inconclusive: -1.3% |
| COc1ccc(C)cc1-n1nnnc1SCC(=O)N1CCC(C(=O)Nc2nccs2)CC1 | inconclusive: -2.2% |
| CN(C)CC1CCCCC1=O (configuration not stated) | inconclusive: -38.9% |
| Cc1nn(-c2ccc(F)cc2F)c2c1-c1nc(N3CCCC3)ncc1CC2 | inconclusive: -3.6% |
| CCC(C)n1c(O)c(C=NC(C)c2ccccc2)c(=O)[nH]c1=S (configuration not stated) | inconclusive: -4.6% |
| Nc1nncn1C(=O)c1c(Cl)cccc1Cl | inactive: 4.8% |
| CSc1c(-c2ccccn2)c(N)nn1C(=O)C1CCC1 | inconclusive: 14.9% |
| CN(c1ccc(OCC(=O)N2CCC(C(N)=O)CC2)cc1)S(=O)(=O)c1cccs1 | inconclusive: 0.9% |

Two entries from above, reformatted.
Compound	inhibition
C=CCNC(=S)NNC(=O)COc1cccc(Cl)c1	inconclusive: 3.6%
Cc1cccc(CN(C)C)c1OC(=O)N(C)C	inconclusive: 4%
